A negative result means that nothing was seen under these conditions.
Target: APOBEC3A (A3A) (UniProt P31941)
Assay: activity assay
Conditions: deamination undetectable, substrate not processed, binding itself not measured, purified recombinant protein, single-stranded DNA, variant of 202mer ssDNA

Sequences of proteins named here, by UniProt entry; tags and fusion partners are left off. A change or cut given only in a name is not applied to a line headed by its entry.
UniProt P31941: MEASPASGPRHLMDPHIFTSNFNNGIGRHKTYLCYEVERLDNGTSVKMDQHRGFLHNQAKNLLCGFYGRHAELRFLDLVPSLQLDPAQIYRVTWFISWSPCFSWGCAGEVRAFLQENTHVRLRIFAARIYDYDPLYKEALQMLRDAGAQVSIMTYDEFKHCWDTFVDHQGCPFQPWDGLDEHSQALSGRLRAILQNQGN

TTGATATGGGTTATGAATGAAGTAGTCGATCTTTCATCATATTCTAGATCCCTCTGAAAAAATCTTCCGAGTTTGCTAGGCAGTGATACATAACTCTTTTCCAATAATTGGGGAAGTCATTCAAATCTATAATAGGTTTCAGATTTAATTCTGACTGTAGCTGCTGAAACGTTGCGGAGTGTTAAGGTATATGAGTAGATGA [202mer ssDNA, 5caC]
activity on this sequence (all C replaced by 5-carboxylcytosine): not active

TTGATATGGGTTATGAATGAAGTAGTCGATCTTTCATCATATTCTAGATCCCTCTGAAAAAATCTTCCGAGTTTGCTAGGCAGTGATACATAACTCTTTTCCAATAATTGGGGAAGTCATTCAAATCTATAATAGGTTTCAGATTTAATTCTGACTGTAGCTGCTGAAACGTTGCGGAGTGTTAAGGTATATGAGTAGATGA [202mer ssDNA, 5pyC]
activity on this sequence (all C replaced by 5-propynyl-C): not active
